This experiment has as its target PPAR-gamma (Homo sapiens, UniProt P37231). Kind of experiment: Reporter gene assay in transfected HepG2 cells: transcriptional activation of a PPRE via a PPAR-gamma mediated pathway. The note with it: transfected human hepatoma (HepG2) cells, 36-48 h exposure, reporter gene activity. It is filed as cell-based. (In a reporter assay the amount or activity of a reporter protein is the signal.)

Chains of the proteins cited; added tags and fusions are not shown.
UniProt P37231, whole entry: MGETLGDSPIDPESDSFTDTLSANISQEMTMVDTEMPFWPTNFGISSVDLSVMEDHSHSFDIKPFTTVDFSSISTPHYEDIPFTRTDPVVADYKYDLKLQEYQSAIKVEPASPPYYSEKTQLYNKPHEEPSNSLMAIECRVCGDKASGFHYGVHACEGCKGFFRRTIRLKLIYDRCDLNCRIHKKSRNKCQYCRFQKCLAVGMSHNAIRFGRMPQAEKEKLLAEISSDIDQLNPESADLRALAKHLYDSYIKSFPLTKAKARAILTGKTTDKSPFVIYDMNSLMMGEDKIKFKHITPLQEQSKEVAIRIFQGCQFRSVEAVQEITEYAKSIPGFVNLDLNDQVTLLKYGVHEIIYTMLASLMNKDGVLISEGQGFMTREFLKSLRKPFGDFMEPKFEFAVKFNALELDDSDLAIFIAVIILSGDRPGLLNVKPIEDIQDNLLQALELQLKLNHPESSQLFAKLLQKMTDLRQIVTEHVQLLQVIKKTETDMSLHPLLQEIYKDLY

The structures given here were assigned with low confidence; some may be wrong. A value given as a limit tells only on which side of the number the result lay.

By EC50 is commonly meant the concentration needed to bring the measured effect to its halfway point. A high value points to weaker potency.

With `COC(=O)CC1CN(Cc2cc(OC)cc(OC)c2)C(=O)[C@H](CC(C)C)N1C(=O)NC1CCCCC1` (stereo partly shown), the EC50 was above 10 µM.
